According to PubChem BioAssay AID2685 (National Center for Advancing Translational Sciences (NCATS), 2010):
This is one part of the list. Shown are side measurements of this screen, not its main read-out; they come without a call. The list favours compounds with an active or inconclusive main result. Potencies come from curve fits of mixed quality, noted in brackets.

Experiment: qHTS Assay for Lipid Storage Modulators in Drosophila S3 Cells;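 as to cell number change: cells counted by Cell Tracker Red CMTPX staining in the red channel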
Settings: BODIPY lipid droplet fluorescence, 18-24 h; for cell number change: measured here: cell count max response, cells fed with added oleic acid
Procedure, shortened: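 Drosophila S3 cells loaded with oleic acid (400 uM, as added) and compounds at several concentrations; lipid droplets imaged by 488-nm laser-scanning cytometry, 500–530 nm intensity and object ratio to cell channel. Percent activity normalized to 20 uM Triacsin C.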

[1] = measured here: cell number channel AC50, cells fed with added oleic acid
[2] = measured here: lipid fluorescence (Fed channel) AC50, cells fed with added oleic acid

Structure (SMILES): O=C1CCCc2c1nc(-c1ccc(F)cc1)n2O
- cell number change: 7.72%
- AC50 [1]: 6.51 µM [rising, single point]
- AC50 [2]: 6.51 µM [rising, single point]

Structure (SMILES): COc1ccc(S(=O)(=O)N(C)CC(=O)N2CCC(C(N)=O)CC2)cc1
- AC50 [2]: 0.461 µM [falling, full curve]

Structure (SMILES): CCCCN(C(=O)CCC(=O)Nc1cc(C)on1)C(C(=O)NC1CCCC1)c1ccc(OC)cc1 (stereo unspecified)
- cell number change: 6.52%
- AC50 [2]: 6.51 µM [rising, single point]

Structure (SMILES): O=C(/C=C/c1c(F)cccc1Cl)N1CCc2ccccc2C1
- cell number change: -5.47%

Structure (SMILES): COC(=O)C1=C(C)Nc2nc(SCc3ccccc3)[nH]c(=O)c2C1c1cccs1 (stereo unspecified)
- AC50 [2]: 18.4 µM [rising, single point]

Structure (SMILES): CCOC(=O)/C(C#N)=C/C1=C(N2CCOCC2)CC(C)(C)OC1
- cell number change: 15.9%
- AC50 [2]: 0.259 µM [rising, full curve, poor fit]

Structure (SMILES): CCOC(=O)C1CCCN(c2c(NCC3CCCO3)c(=O)c2=O)C1 (stereo unspecified)
- cell number change: 31.1%
- AC50 [1]: 6.51 µM [rising, partial curve, poor fit]

Structure (SMILES): NC(=O)c1ccccc1OCC(=O)N1CCCc2ccccc21
- cell number change: 15.8%

Structure (SMILES): COc1ccc(C(=O)O/N=C(\N)c2ccccc2)cc1
- cell number change: -27.8%
- AC50 [2]: 29.1 µM [rising, partial curve]

Structure (SMILES): NS(=O)(=O)c1ccc(CCNC2CC(=O)N(Cc3ccccc3)C2=O)cc1 (stereo unspecified)
- cell number change: 11.7%
- AC50 [2]: 9.2 µM [rising, single point]

Structure (SMILES): COc1ccc2nc(-c3ccccc3)nc(SCC(=O)NCC3CCCO3)c2c1 (stereo unspecified)
- cell number change: -14.4%

Structure (SMILES): COc1ccccc1N1CCN(C(=O)c2cc3c(=O)n(C)c4ccccc4c3n2C)CC1
- cell number change: 2.39%
- AC50 [2]: 1.46 µM [rising, full curve, poor fit]

Structure (SMILES): COc1ccccc1N(CC(=O)Nc1c(C)cccc1C)S(C)(=O)=O
- cell number change: 2.3%
- AC50 [2]: 3.26 µM [rising, partial curve]

Structure (SMILES): NS(=O)(=O)c1ccc(-c2ccc(C=O)o2)cc1
- cell number change: 12.5%
- AC50 [1]: 0.58 µM [rising, single point]

Structure (SMILES): CCN(CC)S(=O)(=O)c1cccc(C(=O)NCC(=O)OCC(=O)NCc2ccccc2)c1
- cell number change: -12.7%
- AC50 [2]: 16.4 µM [falling, partial curve]

Structure (SMILES): C=C1SC(Nc2c(C)cc(C)cc2C)=NC12CCCCC2
- cell number change: -44.4%
- AC50 [1]: 5.17 µM [falling, full curve]
- AC50 [2]: 2.31 µM [falling, full curve]

Structure (SMILES): COc1ccc(-n2ncc(C(=O)NC3CC3)c2C2CCN(C(=O)OC(C)(C)C)CC2)cc1
- AC50 [2]: 18.4 µM [falling, partial curve]

Structure (SMILES): COc1ccc(-c2nc(N)n(C(=O)c3ccc(C)cc3)n2)cc1
- cell number change: -0.5%
- AC50 [2]: 20.6 µM [rising, single point]

Structure (SMILES): COc1ccccc1NC(=O)CCS(=O)(=O)c1cc2c(cc1Cl)NC(=O)CO2
- cell number change: -14.1%
- AC50 [2]: 16.4 µM [falling, partial curve]

Structure (SMILES): CC(C)CC(c1nnnn1CC1CCCO1)N1CCN(c2nc3ccccc3s2)CC1 (stereo unspecified)
- cell number change: 0.419%
- AC50 [2]: 23.1 µM [rising, single point]

Structure (SMILES): Cc1ccc(C(=O)NCCSc2c(C)[nH]c3ccccc23)cc1[N+](=O)[O-]
- cell number change: 0.832%

Structure (SMILES): Cc1ccc(C(=O)OCC(=O)c2c[nH]c3ccccc23)cc1S(=O)(=O)N1CCCCC1
- cell number change: -1.54%
- AC50 [2]: 2.31 µM [rising, full curve]

Structure (SMILES): Cc1ccc(NCc2n[nH]c(=S)n2-c2ccccc2)cc1Cl
- cell number change: -30.6%
- AC50 [1]: 20.6 µM [falling, partial curve]
- AC50 [2]: 25.9 µM [falling, partial curve]

Structure (SMILES): CCOCCCNC(=O)NC12CC3CC(CC(C3)C1)C2
- cell number change: -2.92%
- AC50 [2]: 3.66 µM [falling, partial curve, poor fit]

Structure (SMILES): COc1cc(C)nc(Oc2ccc(OCc3ccccc3)nn2)n1
- cell number change: 275%
- AC50 [1]: 23.1 µM [rising, partial curve]
- AC50 [2]: 3.26 µM [rising, partial curve]

Structure (SMILES): Cc1ccc[n+](-c2nc([O-])sc2/C=N/Nc2ccc([N+](=O)[O-])cc2)c1
- cell number change: 6.84%
- AC50 [2]: 0.82 µM [falling, partial curve, poor fit]

Structure (SMILES): CC(C)[C@H](NC(=O)C1CCN(S(=O)(=O)c2ccccc2)CC1)C(=O)NCc1ccncc1
- AC50 [2]: 6.51 µM [falling, single point]

Structure (SMILES): Cc1snc(S(=O)(=O)/C(C#N)=N/Nc2cccc(C(F)(F)F)c2)c1C#N
- cell number change: 52%
- AC50 [1]: 18.4 µM [rising, single point]

Structure (SMILES): O=C(NNC(=S)Nc1ccc(Cl)cc1)c1ccccc1OC(F)F
- cell number change: -48.9%
- AC50 [1]: 23.1 µM [falling, partial curve]
- AC50 [2]: 25.9 µM [falling, partial curve]

Structure (SMILES): COc1ccc(NC(=O)CSc2nnc(-c3cccs3)n2Cc2ccco2)cc1OC
- cell number change: -7.85%
- AC50 [2]: 2.91 µM [rising, full curve, poor fit]

Structure (SMILES): COc1ccc(CCN2CC(C(=O)NCc3c(C)n[nH]c3C)CCC2=O)cc1 (stereo unspecified)
- cell number change: -8.38%
- AC50 [2]: 25.9 µM [falling, single point]

Structure (SMILES): COCCN(C(=O)c1ccccc1F)c1nnc(-c2ccc(OC)cc2)s1
- AC50 [2]: 20.6 µM [falling, partial curve]

Structure (SMILES): C[C@@H](NC(=O)c1ncn(Cc2ccccc2)c1C(=O)N[C@H](C)c1ccccc1)c1ccccc1
- cell number change: -43.3%
- AC50 [1]: 29.1 µM [falling, single point]
- AC50 [2]: 29.1 µM [falling, single point]

Structure (SMILES): Cc1cc(C(=O)NNC(=O)c2ccccc2F)c2ccccc2n1
- cell number change: 26.9%
- AC50 [2]: 29.1 µM [rising, single point]

Structure (SMILES): CCOC(=O)C1CCN(c2cc(=O)n(Cc3ccc(F)cc3)c(=O)[nH]2)CC1
- AC50 [2]: 4.61 µM [falling, single point]

Structure (SMILES): Cc1ccccc1/C=N/NC(=O)c1cccnc1
- cell number change: 48.9%
- AC50 [1]: 20.6 µM [rising, partial curve, poor fit]

Structure (SMILES): O=C(CCc1nc2ccccc2c(=O)[nH]1)N1CCN(S(=O)(=O)c2ccccc2Br)CC1
- cell number change: -34.5%
- AC50 [1]: 13 µM [falling, partial curve, poor fit]

Structure (SMILES): O=C(COC(=O)c1cccc(S(=O)(=O)N2CCN(c3ccccc3)CC2)c1)NCc1ccco1
- cell number change: -8.93%
